Reference: patent US11427783B2, “Perfuming compositions” (Firmenich SA, priority 2016, dated 2022)

Test: Odor threshold of perfuming compounds in air
[1] = Table 6, perfuming compounds having a fruity note
[2] = Table 10, perfuming compounds having a woody note
[3] = perfuming compounds having a fruity note (Table 6)
[4] = Table 5, perfuming compounds having a green note
[5] = Table 9, perfuming compounds having a gourmand note
[6] = Table 8, perfuming compounds having a sweet note

CCCCCCCCC1CCC(=O)O1 (racemic) [(+−)-5-octyldihydro-2(3H)-furanone]
Odor Threshold (μg/l air) [1]: 2.85E−05 μg/l air

CCCCC(CC)C(=O)OC (racemic) [(+−)-methyl 2-ethylhexanoate]
Odor Threshold (μg/l air) [2]: 1.74E−01 μg/l air | Odor Threshold [3]: 1.74E−01 μg/l air

CC/C=C\CC/C=C/CO [(2E,6Z)-2,6-NONADIEN-1-OL]
Odor Threshold [4]: 3.22E−06 μg/l air

C[C@@H]1CC[C@H]2[C@H](C)C(=O)O[C@@H]2C1
Odor Threshold (μg/l air) [5]: 3.46E−05 μg/l air

CCCCCC1CCC(=O)O1 (racemic) [(+−)-4-NONANOLIDE]
Odor Threshold (μg/l air) [1]: 1.45E−04 μg/l air | Odor Threshold (μg/l air) [5]: 1.45E−04 μg/l air

CCCC(=O)OC(C)(C)Cc1ccccc1 [1,1-DIMETHYL-2-PHENYLETHYL BUTANOATE]
Odor Threshold (μg/l air) [1]: 2.68E−02 μg/l air | Odor Threshold (μg/l air) [6]: 2.68E−02 μg/l air | Odor Threshold (μg/l air) [5]: 2.68E−02 μg/l air

CCOC(=O)CC(C)=O
Odor Threshold [4]: 5.83E−02 μg/l air | Odor Threshold [3]: 5.83E−02 μg/l air

CC(=O)/C(C)=C(/C)C(C)C(C)(C)C (racemic)
Odor Threshold (μg/l air) [2]: 7.24E−02 μg/l air

CC(=O)OCCC1=CCC2CC1C2(C)C (stereo not shown)
Odor Threshold (μg/l air) [2]: 1.10E−01 μg/l air

CCOC(=O)C(C)C [ETHYL ISOBUTYRATE]
Odor Threshold [3]: 1.14E−04 μg/l air

C=CCCCCCCCCO [9-DECEN-1-OL]
Odor Threshold (μg/l air) [1]: 8.92E−03 μg/l air

CCC(C)C(=O)OC(C)C (racemic) [(+−)-ISOPROPYL 2-METHYLBUTANOATE]
Odor Threshold [3]: 8.42E−03 μg/l air

CC1=C[C@H](C)[C@H]2[C@H](CCC(C)(C)[C@H]2O)C1 (racemic)
Odor Threshold [4]: 8.15E−04 μg/l air | Odor Threshold (μg/l air) [1]: 8.15E−04 μg/l air

C=CC(C)=CCC=C(C)C
Odor Threshold [4]: 2.57E−02 μg/l air | Odor Threshold [3]: 2.57E−02 μg/l air

COC(=O)Cc1ccccc1 [METHYL PHENYLACETATE]
Odor Threshold (μg/l air) [6]: 3.21E−04 μg/l air | Odor Threshold (μg/l air) [5]: 3.21E−04 μg/l air | Odor Threshold [3]: 3.21E−04 μg/l air

COC(=O)C1C(C)=CCCC1(C)C (racemic)
Odor Threshold [4]: 1.06E−02 μg/l air

CCCOC(=O)[C@H](C)OC(C)(C)CC [(−)-PROPYL (S)-2-(1,1-DIMETHYLPROPOXY)PROPANOATE]
Odor Threshold [3]: 4.98E−01 μg/l air

CCOCOC1CCCCCCCCCCC1 [(ETHOXYMETHOXY)CYCLODODECANE]
Odor Threshold (μg/l air) [2]: 8.90E−02 μg/l air

CCC(=O)CC(C)CC (stereo not shown) [5-METHYL-3-HEPTANONE]
Odor Threshold [3]: 9.87E−02 μg/l air

CCC(C)c1nccnc1OC (stereo not shown) [PYRAZOBUTYLE]
Odor Threshold [4]: 7.20E−07 μg/l air

O=c1ccc2ccccc2o1 [2-CHROMENONE]
Odor Threshold (μg/l air) [6]: 1.62E−05 μg/l air | Odor Threshold (μg/l air) [5]: 1.62E−05 μg/l air

CCCCOC(C)=O [BUTYL ACETATE]
Odor Threshold (μg/l air) [6]: 4.18E−01 μg/l air | Odor Threshold (μg/l air) [5]: 4.18E−01 μg/l air | Odor Threshold [3]: 4.18E−01 μg/l air

C/C=C(\C)C(=O)OCc1ccccc1 [BENZYL (E)-2-METHYL-2-BUTENOATE]
Odor Threshold (μg/l air) [1]: 3.07E−04 μg/l air | Odor Threshold (μg/l air) [2]: 3.07E−04 μg/l air

CCCCCCC#CC(=O)OC [METHYL 2-NONYNOATE]
Odor Threshold [4]: 1.60E−03 μg/l air

Cc1ccc(OCC=O)cc1
Odor Threshold [4]: 6.46E−05 μg/l air

CC(=O)OC(c1ccccc1)C(Cl)(Cl)Cl (racemic) [(+−)-2,2,2-TRICHLORO-1-PHENYLETHYL ACETATE]
Odor Threshold (μg/l air) [1]: 1.15E−03 μg/l air

C[C@@H]1CC[C@@H](C(C)(C)S)C(=O)C1 [(1R,4R)-8-MERCAPTO-3-P-MENTHANONE]
Odor Threshold [4]: 3.43E−05 μg/l air | Odor Threshold [3]: 3.43E−05 μg/l air

CCCC(S)CCOC (racemic) [(+−)-1-METHOXY-3-HEXANETHIOL]
Odor Threshold [4]: 1.92E−07 μg/l air

CCC=CCC=C/C=C/C(=O)OCC [ETHYL (2E)-2,4,7-DECATRIENOATE]
Odor Threshold [4]: 1.49E−02 μg/l air | Odor Threshold (μg/l air) [1]: 1.49E−02 μg/l air

C/C=C/c1ccc(OC)cc1 [1-methoxy-4-[(1E)-1-propen-1-yl]benzene]
Odor Threshold (μg/l air) [6]: 1.23E−03 μg/l air | Odor Threshold (μg/l air) [5]: 1.23E−03 μg/l air | Odor Threshold [3]: 1.23E−03 μg/l air

CC/C=C\CCOC(=O)OC [(3Z)-hex-3-en-1-yl methyl carbonate]
Odor Threshold [4]: 4.58E−02 μg/l air | Odor Threshold [3]: 4.58E−02 μg/l air

CC(=O)OC(C)(C)Cc1ccccc1 [1,1-DIMETHYL-2-PHENYLETHYL ACETATE]
Odor Threshold [3]: 5.16E−02 μg/l air

CC(C)(C)C(=O)OCCc1ccccc1 [2-PHENYLETHYL PIVALATE]
Odor Threshold (μg/l air) [1]: 3.85E−02 μg/l air | Odor Threshold (μg/l air) [6]: 3.85E−02 μg/l air | Odor Threshold (μg/l air) [5]: 3.85E−02 μg/l air

COc1ccc2ccccc2c1 [2-METHOXYNAPHTHALENE]
Odor Threshold (μg/l air) [6]: 1.02E−05 μg/l air | Odor Threshold (μg/l air) [5]: 1.02E−05 μg/l air

CCCc1ccc2c(c1)OCC(=O)CO2 [7-PROPYL-2H,4H-1,5-BENZODIOXEPIN-3-ONE]
Odor Threshold [4]: 6.43E−05 μg/l air

COc1ccc(C(C)=O)cc1 [1-(4-METHOXYPHENYL)-1-ETHANONE”]
Odor Threshold [4]: 1.41E−04 μg/l air

CC(C)[C@@H]1CC[C@@H](C)CC1=NO
Odor Threshold [4]: 5.52E−05 μg/l air

CCCCSCCCC [DIBUTYL SULFIDE]
Odor Threshold [4]: 2.34E−02 μg/l air

C=C(C)CC(C)OC(=O)C(C)C (racemic)
Odor Threshold (μg/l air) [6]: 2.26E−01 μg/l air | Odor Threshold (μg/l air) [5]: 2.26E−01 μg/l air | Odor Threshold [3]: 2.26E−01 μg/l air

CC(=O)OC(C)CC(C)(C)c1ccccc1 (racemic) [(+−)-1,3-DIMETHYL-3-PHENYLBUTYL ACETATE]
Odor Threshold [4]: 1.06E−02 μg/l air | Odor Threshold (μg/l air) [1]: 1.06E−02 μg/l air

CC/C=C(\C)C(O)CCCCC (racemic) [(+−)-(E)-4-METHYL-3-DECEN-5-OL]
Odor Threshold [4]: 6.78E−04 μg/l air | Odor Threshold (μg/l air) [1]: 6.78E−04 μg/l air

C=C(C)CC(C(C)=O)C(=O)OCC (racemic)
Odor Threshold [4]: 3.64E−03 μg/l air | Odor Threshold [3]: 3.64E−03 μg/l air

CCCCCC(C#N)CCC (racemic) [(+−)-2-propylheptanenitrile]
Odor Threshold [3]: 7.83E−02 μg/l air

CCC(CC(C)CC)=NO (stereo not shown) [5-METHYL-3-HEPTANONEOXIME]
Odor Threshold (μg/l air) [5]: 8.80E−03 μg/l air

CCCCCCOC(=O)C(C)C [hexyl 2-methylpropanoate]
Odor Threshold [4]: 7.15E−01 μg/l air | Odor Threshold [3]: 7.15E−01 μg/l air

CC/C=C\CCO [(Z)-3-HEXEN-1-OL]
Odor Threshold [4]: 1.13E−02 μg/l air

CC1=CCC(CCC(C)C(C)O)C1(C)C (racemic)
Odor Threshold (μg/l air) [2]: 1.52E−03 μg/l air

COc1cc(C=O)ccc1OC(=O)C(C)C
Odor Threshold (μg/l air) [1]: 7.33E−05 μg/l air | Odor Threshold (μg/l air) [6]: 7.33E−05 μg/l air | Odor Threshold (μg/l air) [5]: 7.33E−05 μg/l air

CC/C=C\CCOC(=O)c1ccccc1 [(3Z)-3-hexen-1-yl benzoate]
Odor Threshold [4]: 4.37E−02 μg/l air | Odor Threshold (μg/l air) [1]: 4.37E−02 μg/l air

CC(=O)CCC1=C(C)CCCC1(C)C
Odor Threshold (μg/l air) [6]: 8.51E−03 μg/l air | Odor Threshold (μg/l air) [2]: 8.51E−03 μg/l air

COc1nccnc1CCCC(C)C
Odor Threshold [4]: 1.18E−07 μg/l air

CC/C=C\CCOC(C)=O [(Z)-3-HEXENYL ACETATE]
Odor Threshold [4]: 1.00E−02 μg/l air

CCCCCC#CC(=O)OC [METHYL 2-OCTYNOATE″, METHYL 2-OCTYNOATE]
Odor Threshold [4]: 8.31E−04 μg/l air

Cc1ncsc1CCO [2-(4-METHYL-1,3-THIAZOL-5-YL)-1-ETHANOL]
Odor Threshold (μg/l air) [6]: 2.43E−04 μg/l air

C=CCOC(=O)CCCCCC [ALLYL HEPTANOATE]
Odor Threshold [4]: 1.75E−02 μg/l air | Odor Threshold (μg/l air) [6]: 1.75E−02 μg/l air | Odor Threshold (μg/l air) [5]: 1.75E−02 μg/l air | Odor Threshold [3]: 1.75E−02 μg/l air

CC1CC(C)(c2ccccc2)OC(C)O1 (stereo not shown)
Odor Threshold (μg/l air) [1]: 7.82E−03 μg/l air

CCOC(=O)C(=O)C(C)CC (racemic) [(+−)-ETHYL 3-METHYL-2-OXOPENTANOATE]
Odor Threshold [4]: 5.06E−04 μg/l air | Odor Threshold (μg/l air) [6]: 5.06E−04 μg/l air

CCOC(=O)C(C)CC (racemic) [(+−)-ethyl 2-methylbutanoate]
Odor Threshold [4]: 1.26E−04 μg/l air | Odor Threshold [3]: 1.26E−04 μg/l air

CCCCCC1CCCC1O (racemic) [(+−)-2-PENTYL-1-CYCLOPENTANOL]
Odor Threshold (μg/l air) [6]: 5.43E−03 μg/l air

CCCC(O)CCC1C(C)CCC(C)C1(C)C (racemic)
Odor Threshold (μg/l air) [2]: 4.05E−04 μg/l air

CCCCO [1-BUTANOL]
Odor Threshold [4]: 8.70E−02 μg/l air | Odor Threshold (μg/l air) [6]: 8.70E−02 μg/l air | Odor Threshold (μg/l air) [5]: 8.70E−02 μg/l air | Odor Threshold (μg/l air) [2]: 8.70E−02 μg/l air

CCCCCC(C)=O [2-HEPTANONE]
Odor Threshold [3]: 5.85E−02 μg/l air

CCCOC(C)OCCc1ccccc1 (stereo not shown) [1-PHENYL-2-(1-PROPOXYETHOXY)ETHANE]
Odor Threshold [4]: 1.52E−03 μg/l air

CCCCCC1C(=O)CCC1CC(=O)OC (single isomer, unassigned; (+))
Odor Threshold (μg/l air) [2]: 2.82E−04 μg/l air

CC(C)(C)C1CCC(=O)CC1 [4-(2-methyl-2-propanyl)cyclohexanone]
Odor Threshold (μg/l air) [2]: 1.15E−01 μg/l air

CC(=O)/C=C/C1=C(C)CCCC1(C)C [(3E)-4-(2,6,6-trimethyl-1-cyclohexen-1-yl)-3-buten-2-one]
Odor Threshold (μg/l air) [2]: 3.58E−05 μg/l air

CCCC(S)CCOC(C)=O (racemic) [(+−)-3-mercaptohexyl acetate]
Odor Threshold [4]: 2.72E−06 μg/l air | Odor Threshold [3]: 2.72E−06 μg/l air

CCC(C)C1(C)COC(C2CCC(C)=CC2C)OC1 (stereo not shown)
Odor Threshold (μg/l air) [2]: 1.67E−03 μg/l air

CC(CC=O)c1ccccc1 (racemic) [(+−)-3-PHENYLBUTANAL]
Odor Threshold [4]: 3.89E−04 μg/l air

CCC(C)C(=O)OCCc1ccccc1 (racemic) [(+−)-2-PHENYLETHYL 2-METHYLBUTANOATE]
Odor Threshold (μg/l air) [1]: 8.56E−03 μg/l air

CCC/C=C/CO [(E)-2-HEXEN-1-OL]
Odor Threshold [4]: 1.29E−01 μg/l air

CC/C(=C\C[C@H]1CC=C(C)C1(C)C)CO
Odor Threshold (μg/l air) [2]: 2.41E−05 μg/l air

CCCCCCOC(=O)CCCCC [HEXYL HEXANOATE]
Odor Threshold (μg/l air) [1]: 9.98E−02 μg/l air

CC/C=C\CCOC(=O)CCC [(3Z)-3-hexen-1-yl butyrate]
Odor Threshold [4]: 7.85E−02 μg/l air | Odor Threshold [3]: 7.85E−02 μg/l air
